Reference: PubChem BioAssay AID504444 (National Center for Advancing Translational Sciences (NCATS), 2011)
The whole screen tested about 360,000 compounds, of which about 7,500 (2.1%) were called active. The inconclusive results got no clear call from the source; some entries with a clear call stand among them for comparison. Calls follow the shape of the dose curve; as a rule, active = well fitted inhibition curve with a large enough effect; inconclusive = small, poorly fitted or top-dose-only effect, or effect the other way; inactive = flat fitted curve, though single readings scatter. A potency beside an inconclusive call is a rough fit, not a confirmed value.

Assay: Nrf2 qHTS screen for inhibitors; also: nearly all actives have a fitted effect of over 60% in size
Conditions: A549 ARE-Fluc reporter, luciferase luminescence, 18-24 h; series mostly up to 46 µM
How it was run: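 A549 ARE_Fluc cells, 5000/well, 5% FBS OPTI-MEM; compounds in dose-response, 18-24 h at 37 °C/5% CO2; CellTiter-Fluor viability read (Ex 405/Em 525), then BugLite luciferase luminescence = Nrf2 activity.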
Potency is read from the fitted curve at half-maximal effect.

| Structure (SMILES) | Potency |
| --- | --- |
| COc1cc(OC)c(NC2(c3ccccc3)C(=O)c3ccccc3C2=O)cc1Cl | inconclusive: 6.51 µM [activator, full curve, poor fit] |
| CCOc1ccc(C(=O)NC(=S)N(Cc2ccccc2)Cc2ccccc2)cc1 | inconclusive: 18.4 µM [falling, single point] |
| Cc1cc(OCCCC(=O)NCCN2C(=O)S/C(=C\c3cccnc3)C2=O)ccc1Cl | inconclusive: 3.66 µM [activator, partial curve, poor fit] |
| CSC1=NC(=O)/C(=C/c2ccc(SC)cc2)S1 | inconclusive: 10.3 µM [activator, partial curve] |
| COCCNc1nc(N)c([N+](=O)[O-])c(NCCO)n1 | inconclusive: 20.6 µM [activator, single point] |
| Cc1ccc(-c2nnc(N3CCN(C(=O)COc4ccccc4)CC3)c3ccccc23)cc1 | active: 18.4 µM |
| CCC(c1ccccc1)c1nc(-c2ccccn2)no1 (stereo unspecified) | inconclusive: 18.4 µM [activator, single point] |
| CCCCn1c(N)c(N(CC(C)C)C(=O)C2CCN(S(=O)(=O)c3ccc(C)c(C)c3)CC2)c(=O)[nH]c1=O | inconclusive: 20.6 µM [activator, single point] |
| Cc1ccc(S(=O)(=O)N2CCN(CCOc3cccc(C)c3)CC2)cc1 | active: 20.6 µM |
| COCCn1nnnc1C(c1cc2cc(C)ccc2[nH]c1=O)N1CCCCCC1 (stereo unspecified) | inactive |
| CCc1cccc(-n2c(C)nc3c(cnn3-c3ccc(C)c(C)c3)c2=O)c1 | inconclusive: 29.1 µM [falling, single point] |
| NC(=O)Cc1nc2scc(-c3ccc(Cl)cc3)c2c(=O)[nH]1 | inconclusive: 23.1 µM [falling, partial curve] |
| COc1ccccc1CCNC(=O)C1CCN(C(=O)/C=C/c2ccccc2)CC1 | inconclusive: 16.4 µM [activator, partial curve, poor fit] |
| CC(C)c1ccccc1NC(=S)NCc1nc2ccccc2[nH]1 | inconclusive: 25.9 µM [falling, partial curve, poor fit] |
| Cc1ccc(C)c(NS(=O)(=O)c2cc(C(=O)NCc3ccccn3)ccc2Cl)c1 | inconclusive: 32.6 µM [falling, single point] |
| CCN(CC)C(=O)[C@H]1C[C@H](CC(=O)NCc2ccc(OC)c(OC)c2)C(=O)N2CCc3c([nH]c4cc(-c5ccco5)ccc34)[C@]12C | inconclusive: 29.1 µM [falling, single point] |
| Fc1ccc(NCc2ccccc2-c2nnc(-c3ccccc3Cl)o2)cc1Cl | inconclusive: 23.1 µM [activator, partial curve, poor fit] |
| CCc1ccc(-c2cc(C)no2)cc1S(=O)(=O)NCc1ccc(OC)cc1 | inconclusive: 20.6 µM [activator, partial curve, poor fit] |
| COc1cccc(/C=C/C(=O)OCC(=O)c2c(N)n(C)c(=O)n(C)c2=O)c1 | inactive |
| Cc1cc(=O)oc(C)c1C(=O)OCC(=O)c1ccc(Cl)c(Cl)c1 | inconclusive: 3.26 µM [falling, full curve, poor fit] |
| Cc1ccc(NC(NC(=O)c2cccs2)C(Cl)(Cl)Cl)cc1C (stereo unspecified) | inconclusive: 9.2 µM [falling, partial curve, poor fit] |
| Cc1ccc(NC(=O)c2ncn(CCCNCc3ccccc3)n2)cc1C | inconclusive: 29.1 µM [activator, single point] |

5 entries picked at random from those above, as already listed:

| Structure (SMILES) | Potency |
| --- | --- |
| CCN(CC)C(=O)[C@H]1C[C@H](CC(=O)NCc2ccc(OC)c(OC)c2)C(=O)N2CCc3c([nH]c4cc(-c5ccco5)ccc34)[C@]12C | inconclusive: 29.1 µM [falling, single point] |
| CCc1cccc(-n2c(C)nc3c(cnn3-c3ccc(C)c(C)c3)c2=O)c1 | inconclusive: 29.1 µM [falling, single point] |
| COc1ccccc1CCNC(=O)C1CCN(C(=O)/C=C/c2ccccc2)CC1 | inconclusive: 16.4 µM [activator, partial curve, poor fit] |
| CC(C)c1ccccc1NC(=S)NCc1nc2ccccc2[nH]1 | inconclusive: 25.9 µM [falling, partial curve, poor fit] |
| CCCCn1c(N)c(N(CC(C)C)C(=O)C2CCN(S(=O)(=O)c3ccc(C)c(C)c3)CC2)c(=O)[nH]c1=O | inconclusive: 20.6 µM [activator, single point] |

(listing goes on)

| Structure (SMILES) | Potency |
| --- | --- |
| COc1ccc(C(=O)CCS(=O)(=O)c2ccc(C)cc2)cc1OC | inactive |
| O=C(CCl)Nc1ccccc1Sc1ccccc1 | inactive |
| Cc1cc2cc(CNC(=S)Nc3ccc(OC(F)F)cc3)ccc2[nH]1 | inconclusive: 11.6 µM [falling, partial curve] |
| CCc1ccc(C(=O)Nc2ccc3nc(C)ccc3c2)cc1 | inactive |
| CSc1ccc(CNc2ccc(C)cc2)cc1 | inconclusive: 29.1 µM [activator, single point] |
| CCOc1ccc(C2C(C(=O)OC)=CN(C(C)c3ccccc3)C=C2C(=O)OC)cc1 (stereo unspecified) | inconclusive: 18.4 µM [falling, partial curve, poor fit] |
| Cc1noc(C)c1-c1ccc2ncnc(NCc3ccc(-c4ccccc4)cc3)c2c1 | active: 11.6 µM |
| Cc1nc(Nc2ccc(Cl)cc2)c(C#N)c(=O)[nH]1 | inconclusive: 16.4 µM [falling, single point] |
| CCOC(=O)N1CCN(C(=O)c2cnn3c(C(F)(F)F)cc(-c4cccs4)nc23)CC1 | inactive |
| Cc1ccc(NC(=O)C2C(=O)N(C)c3ccccc32)cc1 (stereo unspecified) | inconclusive: 8.2 µM [activator, partial curve, poor fit] |
| COc1cc(C)ccc1OCCSc1nc2ccc(NC(=O)c3ccccc3F)cc2s1 | inactive |
| Cc1cccc(-c2ncc(CN3CCN(CC(C)C)C(CCO)C3)cn2)c1 (stereo unspecified) | inconclusive: 29.1 µM [activator, single point] |
| CN1/C(=C\C(=O)C[n+]2ccc(C(=O)c3ccccc3)cc2)C(C)(C)c2ccccc21 | active: 5.17 µM |
| O=C1SCCc2c1n(Cc1ccccc1)c1ccccc21 | inconclusive: 10.3 µM [activator, partial curve] |
| CN1CCN(C(=O)c2ccccc2NC(=O)c2ccccc2)CC1 | inactive |
| COC(=O)c1ccc(NC(=O)CN(C)S(=O)(=O)c2ccc3c(c2)CCCC(=O)N3)cc1 | inconclusive: 29.1 µM [falling, single point] |
| COc1ccc(NCc2nnc(SCc3ccc(Cl)cc3)n2-c2ccccc2)cc1 | inconclusive: 32.6 µM [falling, single point] |
| Cc1ccc(S(=O)(=O)n2nccc2-c2c(-c3ccccc3)noc2C)cc1 | active: 18.4 µM |
| O=[N+]([O-])c1ccc(N2CCN(c3ccccc3O)CC2)c(Cl)c1 | inconclusive: 29.1 µM [falling, single point] |
| CC1=NN(c2ccc(N)cc2)C(=O)C1 | inactive |
| COc1ccc(NC(=O)c2cn(CCC#N)nc2-c2cc3ccccc3o2)cc1 | inconclusive: 29.1 µM [falling, single point] |
| CCCCCN=C(N)N/N=C/c1c[nH]c2ccc(OC)cc12 | inconclusive: 23.1 µM [falling, single point] |

| Structure (SMILES) | Potency |
| --- | --- |
| CC(=O)Nc1sc2c(c1C(c1ccc(F)cc1)N1CCOCC1)CCCC2 (stereo unspecified) | inconclusive: 18.4 µM [falling, single point] |
| O=C(NC(=S)N1CCc2ccccc21)c1ccccc1 | inconclusive: 2.91 µM [activator, full curve, poor fit] |
| O=C(C1=C[C@H](C2CCCCC2)C[C@H](OCc2ccc(CO)cc2)O1)N1CCN(Cc2ccc3c(c2)OCO3)CC1 | active: 23.1 µM |
| O=C(CCC1CCCN(C(=O)C2(c3ccccc3)CC2)C1)N1CCN(c2ccccn2)CC1 (stereo unspecified) | inconclusive: 29.1 µM [falling, single point] |
| O=C(c1ccc(-c2cccc(C(F)(F)F)c2)o1)N1CCN(c2ccccc2O)CC1 | inconclusive: 25.9 µM [falling, single point] |
| Cc1ccc(C(=O)OCC(=O)Nc2cccc(S(=O)(=O)NC3=NCCCCC3)c2)c(C)c1 | inconclusive: 14.6 µM [falling, partial curve] |
| CC(C)CC(=O)C(=O)O | inactive |
| Cc1ccccc1C1C(C#N)=C2N=C(N)c3c(sc4c3CCCCC4)N2C2=C1C(=O)CCC2 (stereo unspecified) | inconclusive: 29.1 µM [falling, single point] |
| CC(=O)NC(Cc1ccc(F)cc1)C(=O)NC1CCN(C(=O)Nc2cccc(C)c2)CC1 (stereo unspecified) | inconclusive: 16.4 µM [activator, single point] |
| Cc1cccc(NC(=O)CSc2nc3ccccc3c(=O)n2C)c1 | active: 11.6 µM |
| CCOc1ccc(/C=C/C(=O)c2c(O)cc(C)oc2=O)cc1 | inconclusive: 9.2 µM [activator, partial curve] |
| C/C(=N\NC(=S)NC1CCCCC1)c1c(F)cccc1F | inconclusive: 29.1 µM [falling, single point] |
| CC(C)c1nc(SCC(=O)Nc2ccc(N(C)C)cc2)c2ccccc2n1 | inconclusive: 29.1 µM [activator, single point] |
| Cc1cc2c(cc(C(=O)OC(C(=O)NCc3ccco3)C(C)C)n2C)o1 (stereo unspecified) | inconclusive: 25.9 µM [falling, single point] |
| OC(COc1ccc2c(c1)CCC2)CN1CCN(c2cccc(Cl)c2)CC1 (stereo unspecified) | inconclusive: 32.6 µM [falling, single point] |
| CNC(=O)c1c(Cl)cnn1-c1ccc(F)cc1 | inconclusive: 25.9 µM [activator, partial curve] |
| O=C(c1cc(C(=O)N2CCN(c3ccc(F)cc3)CC2)cc([N+](=O)[O-])c1)N1CCN(c2ccc(F)cc2)CC1 | active: 18.4 µM |
| CN(C)S(=O)(=O)c1cccc(NC(=O)COc2ccccc2C(=O)NCc2ccccc2)c1 | inconclusive: 25.9 µM [falling, single point] |
| FC(F)Sc1ccc(NC(=S)NC2CCCCC2)cc1 | inconclusive: 3.26 µM [activator, single point] |
| COc1ccccc1OCC(=O)N/N=C/C=C/c1ccc([N+](=O)[O-])o1 | inconclusive: 32.6 µM [falling, partial curve, poor fit] |
| O=C(O)[C@H](O)[C@@H](O)C(=O)O | inactive |
| COc1cc(OC)c(N(C)C(=O)c2cc3c(s2)-c2ccccc2S(=O)(=O)C3)cc1Cl | inconclusive: 20.6 µM [falling, single point] |
